Results are given in words; binding and its absence hold for the method and conditions named. Some binding calls cover weakened binding; strength is not graded here.
B1: humanized Y1238 hz1 (hz-HC1 / hz-LC1), IgG1.3f (antibody, V domains shown)
VH: QVQLVQSGAEVKKPGASVKVSCKASGYAFTNYLIEWVRQAPGQGLEWMGVINPGSGGTNYNEKFKGRVTMTRDTSISTAYMELSRLRSDDTAVYYCARSQLGRRFDYWGQGTLVTVSS
VL: DIQMTQSPSSLSASVGDRVTITCKASQDVRTGVAWYQQKPGKAPKLLIYSASYRNTGVPSRFSGSGSGTDFTFTISSLQPEDIATYYCQQHYSPPYTFGGGTKVEIK
B2: humanized Y1238 hz2 (hz-HC1 / hz-LC2), IgG1.3f (antibody, V domains shown)
VH: QVQLVQSGAEVKKPGASVKVSCKASGYAFTNYLIEWVRQAPGQGLEWMGVINPGSGGTNYNEKFKGRVTMTRDTSISTAYMELSRLRSDDTAVYYCARSQLGRRFDYWGQGTLVTVSS
VL: DIQMTQSPSSLSASVGDRVTITCKASQDVRTGVAWYQQKPGKAPKLLIYSASYRNTGVPSRFSGSRSGTDFTFTISSLQPEDIATYYCQQHYSPPYTFGGGTKVEIK
B3: humanized Y1238 hz3 (hz-HC1 / hz-LC3), IgG1.3f (antibody, V domains shown)
VH: QVQLVQSGAEVKKPGASVKVSCKASGYAFTNYLIEWVRQAPGQGLEWMGVINPGSGGTNYNEKFKGRVTMTRDTSISTAYMELSRLRSDDTAVYYCARSQLGRRFDYWGQGTLVTVSS
VL: DIQMTQSPSSLSASVGDRVTITCKASQDVRTGVAWYQQKPGQSPKLLIYSASYRNTGVPSRFSGSRSGTDFTFTISSLQPEDIAVYYCQQHYSPPYTFGGGTKVEIK
B4: humanized Y1238 hz4 (hz-HC1 / hz-LC4), IgG1.3f (antibody, V domains shown)
VH: QVQLVQSGAEVKKPGASVKVSCKASGYAFTNYLIEWVRQAPGQGLEWMGVINPGSGGTNYNEKFKGRVTMTRDTSISTAYMELSRLRSDDTAVYYCARSQLGRRFDYWGQGTLVTVSS
VL: DIQMTQSPSSLSASVGDRVTITCKASQDVRTGVAWYQQKPGQSPKLLIYSASYRNTGVPSRFSGSRSGTDFTFTISSLQAEDIAVYYCQQHYSPPYTFGGGTKVEIK
B5: humanized Y1238 hz5 (hz-HC1 / hz-LC5), IgG1.3f (antibody, V domains shown)
VH: QVQLVQSGAEVKKPGASVKVSCKASGYAFTNYLIEWVRQAPGQGLEWMGVINPGSGGTNYNEKFKGRVTMTRDTSISTAYMELSRLRSDDTAVYYCARSQLGRRFDYWGQGTLVTVSS
VL: DIQMTQSPSSLSASVGDRVTITCKASQDVRTGVAWYQQKPGQAPKLLIYSASYRNTGVPSRFSGSRSGTDFTFTISSLQPEDIAVYYCQQHYSPPYTFGGGTKVEIK
B6: humanized Y1238 hz6 (hz-HC2 / hz-LC1), IgG1.3f (antibody, V domains shown)
VH: QVQLVQSGAEVKKPGASVKVSCKASGYAFTNYLIEWVRQAPGQGLEWMGVINPGSGGTNYNEKFKGRVTMTADTSISTAYMELSRLRSDDTAVYYCARSQLGRRFDYWGQGTLVTVSS
VL: DIQMTQSPSSLSASVGDRVTITCKASQDVRTGVAWYQQKPGKAPKLLIYSASYRNTGVPSRFSGSGSGTDFTFTISSLQPEDIATYYCQQHYSPPYTFGGGTKVEIK
B7: humanized Y1238 hz7 (hz-HC2 / hz-LC2), IgG1.3f (antibody, V domains shown)
VH: QVQLVQSGAEVKKPGASVKVSCKASGYAFTNYLIEWVRQAPGQGLEWMGVINPGSGGTNYNEKFKGRVTMTADTSISTAYMELSRLRSDDTAVYYCARSQLGRRFDYWGQGTLVTVSS
VL: DIQMTQSPSSLSASVGDRVTITCKASQDVRTGVAWYQQKPGKAPKLLIYSASYRNTGVPSRFSGSRSGTDFTFTISSLQPEDIATYYCQQHYSPPYTFGGGTKVEIK
B8: humanized Y1238 hz8 (hz-HC2 / hz-LC3), IgG1.3f (antibody, V domains shown)
VH: QVQLVQSGAEVKKPGASVKVSCKASGYAFTNYLIEWVRQAPGQGLEWMGVINPGSGGTNYNEKFKGRVTMTADTSISTAYMELSRLRSDDTAVYYCARSQLGRRFDYWGQGTLVTVSS
VL: DIQMTQSPSSLSASVGDRVTITCKASQDVRTGVAWYQQKPGQSPKLLIYSASYRNTGVPSRFSGSRSGTDFTFTISSLQPEDIAVYYCQQHYSPPYTFGGGTKVEIK
B9: humanized Y1238 hz9 (hz-HC2 / hz-LC4), IgG1.3f (antibody, V domains shown)
VH: QVQLVQSGAEVKKPGASVKVSCKASGYAFTNYLIEWVRQAPGQGLEWMGVINPGSGGTNYNEKFKGRVTMTADTSISTAYMELSRLRSDDTAVYYCARSQLGRRFDYWGQGTLVTVSS
VL: DIQMTQSPSSLSASVGDRVTITCKASQDVRTGVAWYQQKPGQSPKLLIYSASYRNTGVPSRFSGSRSGTDFTFTISSLQAEDIAVYYCQQHYSPPYTFGGGTKVEIK
B10: humanized Y1238 hz10 (hz-HC2 / hz-LC5), IgG1.3f (antibody, V domains shown)
VH: QVQLVQSGAEVKKPGASVKVSCKASGYAFTNYLIEWVRQAPGQGLEWMGVINPGSGGTNYNEKFKGRVTMTADTSISTAYMELSRLRSDDTAVYYCARSQLGRRFDYWGQGTLVTVSS
VL: DIQMTQSPSSLSASVGDRVTITCKASQDVRTGVAWYQQKPGQAPKLLIYSASYRNTGVPSRFSGSRSGTDFTFTISSLQPEDIAVYYCQQHYSPPYTFGGGTKVEIK
B11: humanized Y1238 hz16 (hz-HC4 / hz-LC1), IgG1.3f (antibody, V domains shown)
VH: QVQLVQSGAEVKKPGASVKVSCKASGYAFTNYLIEWVRQAPGQGLEWMGVINPGSGGTNYNEKFKGRVTMTADKSISTAYMELSRLRSDDTAVYYCARSQLGRRFDYWGQGTLVTVSS
VL: DIQMTQSPSSLSASVGDRVTITCKASQDVRTGVAWYQQKPGKAPKLLIYSASYRNTGVPSRFSGSGSGTDFTFTISSLQPEDIATYYCQQHYSPPYTFGGGTKVEIK
B12: humanized Y1238 hz17 (hz-HC4 / hz-LC2), IgG1.3f (antibody, V domains shown)
VH: QVQLVQSGAEVKKPGASVKVSCKASGYAFTNYLIEWVRQAPGQGLEWMGVINPGSGGTNYNEKFKGRVTMTADKSISTAYMELSRLRSDDTAVYYCARSQLGRRFDYWGQGTLVTVSS
VL: DIQMTQSPSSLSASVGDRVTITCKASQDVRTGVAWYQQKPGKAPKLLIYSASYRNTGVPSRFSGSRSGTDFTFTISSLQPEDIATYYCQQHYSPPYTFGGGTKVEIK
B13: humanized Y1238 hz18 (hz-HC4 / hz-LC3), IgG1.3f (antibody, V domains shown)
VH: QVQLVQSGAEVKKPGASVKVSCKASGYAFTNYLIEWVRQAPGQGLEWMGVINPGSGGTNYNEKFKGRVTMTADKSISTAYMELSRLRSDDTAVYYCARSQLGRRFDYWGQGTLVTVSS
VL: DIQMTQSPSSLSASVGDRVTITCKASQDVRTGVAWYQQKPGQSPKLLIYSASYRNTGVPSRFSGSRSGTDFTFTISSLQPEDIAVYYCQQHYSPPYTFGGGTKVEIK
B14: humanized Y1238 hz19 (hz-HC4 / hz-LC4), IgG1.3f (antibody, V domains shown)
VH: QVQLVQSGAEVKKPGASVKVSCKASGYAFTNYLIEWVRQAPGQGLEWMGVINPGSGGTNYNEKFKGRVTMTADKSISTAYMELSRLRSDDTAVYYCARSQLGRRFDYWGQGTLVTVSS
VL: DIQMTQSPSSLSASVGDRVTITCKASQDVRTGVAWYQQKPGQSPKLLIYSASYRNTGVPSRFSGSRSGTDFTFTISSLQAEDIAVYYCQQHYSPPYTFGGGTKVEIK
B15: humanized Y1238 hz20 (hz-HC4 / hz-LC5), IgG1.3f (antibody, V domains shown)
VH: QVQLVQSGAEVKKPGASVKVSCKASGYAFTNYLIEWVRQAPGQGLEWMGVINPGSGGTNYNEKFKGRVTMTADKSISTAYMELSRLRSDDTAVYYCARSQLGRRFDYWGQGTLVTVSS
VL: DIQMTQSPSSLSASVGDRVTITCKASQDVRTGVAWYQQKPGQAPKLLIYSASYRNTGVPSRFSGSRSGTDFTFTISSLQPEDIAVYYCQQHYSPPYTFGGGTKVEIK
B16: humanized Y1238 hz21 (hz-HC5 / hz-LC1), IgG1.3f (antibody, V domains shown)
VH: QVQLVQSGAEVKKPGASVKVSCKASGYAFTNYLIEWVRQRPGQGLEWMGVINPGSGGTNYNEKFKGRVTMTADKSISTAYMELSRLRSDDTAVYYCARSQLGRRFDYWGQGTLVTVSS
VL: DIQMTQSPSSLSASVGDRVTITCKASQDVRTGVAWYQQKPGKAPKLLIYSASYRNTGVPSRFSGSGSGTDFTFTISSLQPEDIATYYCQQHYSPPYTFGGGTKVEIK
B17: humanized Y1238 hz22 (hz-HC5 / hz-LC2), IgG1.3f (antibody, V domains shown)
VH: QVQLVQSGAEVKKPGASVKVSCKASGYAFTNYLIEWVRQRPGQGLEWMGVINPGSGGTNYNEKFKGRVTMTADKSISTAYMELSRLRSDDTAVYYCARSQLGRRFDYWGQGTLVTVSS
VL: DIQMTQSPSSLSASVGDRVTITCKASQDVRTGVAWYQQKPGKAPKLLIYSASYRNTGVPSRFSGSRSGTDFTFTISSLQPEDIATYYCQQHYSPPYTFGGGTKVEIK
B18: humanized Y1238 hz23 (hz-HC5 / hz-LC3), IgG1.3f (antibody, V domains shown)
VH: QVQLVQSGAEVKKPGASVKVSCKASGYAFTNYLIEWVRQRPGQGLEWMGVINPGSGGTNYNEKFKGRVTMTADKSISTAYMELSRLRSDDTAVYYCARSQLGRRFDYWGQGTLVTVSS
VL: DIQMTQSPSSLSASVGDRVTITCKASQDVRTGVAWYQQKPGQSPKLLIYSASYRNTGVPSRFSGSRSGTDFTFTISSLQPEDIAVYYCQQHYSPPYTFGGGTKVEIK
B19: humanized Y1238 hz24 (hz-HC5 / hz-LC4), IgG1.3f (antibody, V domains shown)
VH: QVQLVQSGAEVKKPGASVKVSCKASGYAFTNYLIEWVRQRPGQGLEWMGVINPGSGGTNYNEKFKGRVTMTADKSISTAYMELSRLRSDDTAVYYCARSQLGRRFDYWGQGTLVTVSS
VL: DIQMTQSPSSLSASVGDRVTITCKASQDVRTGVAWYQQKPGQSPKLLIYSASYRNTGVPSRFSGSRSGTDFTFTISSLQAEDIAVYYCQQHYSPPYTFGGGTKVEIK
B20: humanized Y1238 hz25 (hz-HC5 / hz-LC5), IgG1.3f (antibody, V domains shown)
VH: QVQLVQSGAEVKKPGASVKVSCKASGYAFTNYLIEWVRQRPGQGLEWMGVINPGSGGTNYNEKFKGRVTMTADKSISTAYMELSRLRSDDTAVYYCARSQLGRRFDYWGQGTLVTVSS
VL: DIQMTQSPSSLSASVGDRVTITCKASQDVRTGVAWYQQKPGQAPKLLIYSASYRNTGVPSRFSGSRSGTDFTFTISSLQPEDIAVYYCQQHYSPPYTFGGGTKVEIK
B21: humanized Y1238 hz26 (hz-HC6 / hz-LC1), IgG1.3f (antibody, V domains shown)
VH: QVQLVQSGAEVKKPGASVKVSCKASGYAFTNYLIEWVRQRPGQGLEWMGVINPGSGGTNYNEKFKGRVTLTADKSISTAYMELSRLRSDDTAVYYCARSQLGRRFDYWGQGTLVTVSS
VL: DIQMTQSPSSLSASVGDRVTITCKASQDVRTGVAWYQQKPGKAPKLLIYSASYRNTGVPSRFSGSGSGTDFTFTISSLQPEDIATYYCQQHYSPPYTFGGGTKVEIK
B22: humanized Y1238 hz27 (hz-HC6 / hz-LC2), IgG1.3f (antibody, V domains shown)
VH: QVQLVQSGAEVKKPGASVKVSCKASGYAFTNYLIEWVRQRPGQGLEWMGVINPGSGGTNYNEKFKGRVTLTADKSISTAYMELSRLRSDDTAVYYCARSQLGRRFDYWGQGTLVTVSS
VL: DIQMTQSPSSLSASVGDRVTITCKASQDVRTGVAWYQQKPGKAPKLLIYSASYRNTGVPSRFSGSRSGTDFTFTISSLQPEDIATYYCQQHYSPPYTFGGGTKVEIK

Amino acid sequences for entries named in this document (tags omitted). A change or cut given only in a name is not applied to a line headed by its entry.
UniProt P25942: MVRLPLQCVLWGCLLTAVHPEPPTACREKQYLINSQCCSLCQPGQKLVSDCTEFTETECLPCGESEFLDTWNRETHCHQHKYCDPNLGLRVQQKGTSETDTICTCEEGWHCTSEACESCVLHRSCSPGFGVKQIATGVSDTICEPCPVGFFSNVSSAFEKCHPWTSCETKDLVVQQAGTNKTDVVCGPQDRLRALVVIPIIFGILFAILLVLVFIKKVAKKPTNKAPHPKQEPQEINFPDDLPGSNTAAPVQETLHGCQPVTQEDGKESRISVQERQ

The binders below were run against human-CD40 monomer (human) (UniProt P25942) (assay: SPR 2 pt screen).

Q: B1 was tested. Which binding did it give?
A: Its binding is “binds”.

Q: With B2 as the binder, how does the binding read?
A: The binding was “binds”.

Q: B3 was tested. Which binding did it give?
A: The binding was “binds”.

Q: Which binding does the source give for B4 here?
A: Its binding is “binds”.

Q: For B5, which binding is on record?
A: Its binding is “binds”.

Q: For B6, which binding is on record?
A: Its binding is “binds”.

Q: With B7 as the binder, how does the binding read?
A: The binding was “binds”.

Q: For B8, which binding is on record?
A: Its binding is “binds”.

Q: With B9 as the binder, how does the binding read?
A: The binding was “binds”.

Q: B10 was tested. Which binding did it give?
A: Its binding is “binds”.

Q: Which binding does the source give for B11 here?
A: The binding was “binds”.

Q: For B12, which binding is on record?
A: The binding was “binds”.

Q: With B13 as the binder, how does the binding read?
A: The binding was “binds”.

Q: With B14 as the binder, how does the binding read?
A: The binding was “binds”.

Q: B15 was tested. Which binding did it give?
A: Its binding is “binds”.

Q: Which binding does the source give for B16 here?
A: The binding was “binds”.

Q: With B17 as the binder, how does the binding read?
A: Its binding is “binds”.

Q: For B18, which binding is on record?
A: Its binding is “binds”.

Q: B19 was tested. Which binding did it give?
A: The binding was “binds”.

Q: With B20 as the binder, how does the binding read?
A: The binding was “binds”.

Q: B21 was tested. Which binding did it give?
A: The binding was “binds”.

Q: B22 was tested. Which binding did it give?
A: Its binding is “binds”.
